This passage reports log2 fold change results from the supplement of paper PMC10849652.

The chains behind the UniProt entries cited, without tags or fusion partners. Where a name states a change or a piece, a line headed by the entry shows the natural chain unless it says otherwise.
UniProt Q13371: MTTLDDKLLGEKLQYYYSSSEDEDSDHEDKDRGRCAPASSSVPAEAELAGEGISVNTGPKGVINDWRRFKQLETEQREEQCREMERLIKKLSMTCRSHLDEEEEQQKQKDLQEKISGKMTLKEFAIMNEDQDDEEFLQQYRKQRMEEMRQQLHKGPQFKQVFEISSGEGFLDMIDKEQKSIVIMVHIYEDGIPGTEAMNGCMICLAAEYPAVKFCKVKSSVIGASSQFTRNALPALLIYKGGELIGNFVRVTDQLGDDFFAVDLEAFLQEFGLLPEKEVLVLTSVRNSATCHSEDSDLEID
UniProt O14737: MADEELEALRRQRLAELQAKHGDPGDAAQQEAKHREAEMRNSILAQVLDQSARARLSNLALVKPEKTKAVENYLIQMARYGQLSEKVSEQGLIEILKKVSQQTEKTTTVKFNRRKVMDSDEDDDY
UniProt Q9BTK6, whole entry, looked up: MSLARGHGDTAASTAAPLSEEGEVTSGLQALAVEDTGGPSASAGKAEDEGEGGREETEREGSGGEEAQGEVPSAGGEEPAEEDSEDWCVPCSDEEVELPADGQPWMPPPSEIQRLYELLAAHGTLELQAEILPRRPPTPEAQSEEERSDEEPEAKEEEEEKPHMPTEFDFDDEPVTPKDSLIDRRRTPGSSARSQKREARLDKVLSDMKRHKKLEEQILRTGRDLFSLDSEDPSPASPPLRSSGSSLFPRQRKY
UniProt Q14690: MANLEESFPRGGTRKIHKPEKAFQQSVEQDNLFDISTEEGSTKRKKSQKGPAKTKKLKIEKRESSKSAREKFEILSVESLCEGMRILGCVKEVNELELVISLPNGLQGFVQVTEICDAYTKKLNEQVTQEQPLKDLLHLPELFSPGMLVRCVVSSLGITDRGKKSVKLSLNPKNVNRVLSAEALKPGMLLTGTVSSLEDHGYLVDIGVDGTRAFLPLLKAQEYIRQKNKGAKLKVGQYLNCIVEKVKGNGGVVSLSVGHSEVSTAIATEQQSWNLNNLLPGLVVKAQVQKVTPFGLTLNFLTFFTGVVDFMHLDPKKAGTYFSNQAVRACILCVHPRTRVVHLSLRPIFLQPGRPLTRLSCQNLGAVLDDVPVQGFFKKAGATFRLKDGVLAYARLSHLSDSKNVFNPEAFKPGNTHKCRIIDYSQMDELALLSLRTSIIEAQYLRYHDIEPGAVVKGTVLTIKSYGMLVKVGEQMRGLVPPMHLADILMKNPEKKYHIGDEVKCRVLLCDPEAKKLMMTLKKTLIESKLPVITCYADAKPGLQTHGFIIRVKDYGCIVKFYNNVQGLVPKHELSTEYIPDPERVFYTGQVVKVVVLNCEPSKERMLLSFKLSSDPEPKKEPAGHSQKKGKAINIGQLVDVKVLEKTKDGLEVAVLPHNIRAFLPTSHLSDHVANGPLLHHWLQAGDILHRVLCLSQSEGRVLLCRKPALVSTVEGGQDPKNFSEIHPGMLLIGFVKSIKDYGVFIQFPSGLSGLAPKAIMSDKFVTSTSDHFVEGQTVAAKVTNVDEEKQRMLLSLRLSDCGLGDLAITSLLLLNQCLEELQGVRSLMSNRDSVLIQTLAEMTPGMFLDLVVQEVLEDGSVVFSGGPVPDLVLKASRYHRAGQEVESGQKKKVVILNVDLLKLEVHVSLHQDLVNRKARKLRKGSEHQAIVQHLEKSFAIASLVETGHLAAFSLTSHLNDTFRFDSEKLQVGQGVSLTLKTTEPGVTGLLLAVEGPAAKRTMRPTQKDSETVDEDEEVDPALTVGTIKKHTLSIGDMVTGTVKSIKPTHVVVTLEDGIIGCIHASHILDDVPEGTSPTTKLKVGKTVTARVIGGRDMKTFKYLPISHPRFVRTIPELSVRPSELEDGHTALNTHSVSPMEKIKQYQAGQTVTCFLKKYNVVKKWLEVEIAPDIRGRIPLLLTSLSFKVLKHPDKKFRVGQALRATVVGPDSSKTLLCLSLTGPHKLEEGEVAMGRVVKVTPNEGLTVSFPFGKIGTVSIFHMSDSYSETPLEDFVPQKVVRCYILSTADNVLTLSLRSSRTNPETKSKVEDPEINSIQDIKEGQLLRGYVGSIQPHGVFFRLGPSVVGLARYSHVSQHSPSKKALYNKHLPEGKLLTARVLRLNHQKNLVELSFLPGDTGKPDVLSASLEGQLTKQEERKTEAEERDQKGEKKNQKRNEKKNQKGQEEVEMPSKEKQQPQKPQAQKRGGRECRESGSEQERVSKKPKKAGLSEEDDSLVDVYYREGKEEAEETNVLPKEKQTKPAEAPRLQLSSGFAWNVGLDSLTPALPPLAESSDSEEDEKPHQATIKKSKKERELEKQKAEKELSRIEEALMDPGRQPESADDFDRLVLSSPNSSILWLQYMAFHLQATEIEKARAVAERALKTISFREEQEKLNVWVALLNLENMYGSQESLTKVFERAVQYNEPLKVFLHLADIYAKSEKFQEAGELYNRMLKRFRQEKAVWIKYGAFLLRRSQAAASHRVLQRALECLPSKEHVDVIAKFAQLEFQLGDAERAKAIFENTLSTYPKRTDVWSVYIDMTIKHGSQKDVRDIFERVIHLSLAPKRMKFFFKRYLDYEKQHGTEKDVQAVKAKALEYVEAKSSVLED
UniProt Q5T2R2: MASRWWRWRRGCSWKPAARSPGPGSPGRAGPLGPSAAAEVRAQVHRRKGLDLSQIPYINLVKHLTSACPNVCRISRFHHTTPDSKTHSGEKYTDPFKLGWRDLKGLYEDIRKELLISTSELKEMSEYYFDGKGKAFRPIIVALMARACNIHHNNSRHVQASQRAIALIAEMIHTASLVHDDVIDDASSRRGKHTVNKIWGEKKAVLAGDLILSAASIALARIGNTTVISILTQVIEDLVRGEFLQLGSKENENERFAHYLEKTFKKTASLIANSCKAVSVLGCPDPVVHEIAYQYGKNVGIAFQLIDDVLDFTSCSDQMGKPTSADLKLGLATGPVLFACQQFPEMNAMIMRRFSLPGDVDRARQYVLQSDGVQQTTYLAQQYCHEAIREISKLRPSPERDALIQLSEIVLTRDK
UniProt O75914, whole entry, looked up: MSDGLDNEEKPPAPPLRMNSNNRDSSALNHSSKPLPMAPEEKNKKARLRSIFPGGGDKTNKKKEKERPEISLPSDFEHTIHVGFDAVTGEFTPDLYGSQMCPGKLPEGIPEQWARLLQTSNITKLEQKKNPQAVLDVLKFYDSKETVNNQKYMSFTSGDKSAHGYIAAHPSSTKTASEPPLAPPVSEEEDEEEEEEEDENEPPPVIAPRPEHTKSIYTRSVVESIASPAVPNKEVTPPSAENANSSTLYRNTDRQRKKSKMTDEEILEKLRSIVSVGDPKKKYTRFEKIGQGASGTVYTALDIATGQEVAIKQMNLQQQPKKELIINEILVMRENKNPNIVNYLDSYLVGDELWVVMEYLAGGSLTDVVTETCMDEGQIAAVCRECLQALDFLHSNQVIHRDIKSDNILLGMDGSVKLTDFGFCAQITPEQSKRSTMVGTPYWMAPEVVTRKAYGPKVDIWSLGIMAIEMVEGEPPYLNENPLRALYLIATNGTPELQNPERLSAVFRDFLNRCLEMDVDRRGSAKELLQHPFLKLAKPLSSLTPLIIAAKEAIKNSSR
UniProt Q9HBH1: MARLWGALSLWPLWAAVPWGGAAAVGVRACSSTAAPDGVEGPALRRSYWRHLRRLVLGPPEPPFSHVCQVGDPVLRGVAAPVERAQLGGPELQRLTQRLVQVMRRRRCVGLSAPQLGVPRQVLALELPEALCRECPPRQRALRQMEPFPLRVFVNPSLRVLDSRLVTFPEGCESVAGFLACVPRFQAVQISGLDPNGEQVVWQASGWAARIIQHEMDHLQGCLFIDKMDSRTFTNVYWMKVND
UniProt P11177, whole entry, looked up: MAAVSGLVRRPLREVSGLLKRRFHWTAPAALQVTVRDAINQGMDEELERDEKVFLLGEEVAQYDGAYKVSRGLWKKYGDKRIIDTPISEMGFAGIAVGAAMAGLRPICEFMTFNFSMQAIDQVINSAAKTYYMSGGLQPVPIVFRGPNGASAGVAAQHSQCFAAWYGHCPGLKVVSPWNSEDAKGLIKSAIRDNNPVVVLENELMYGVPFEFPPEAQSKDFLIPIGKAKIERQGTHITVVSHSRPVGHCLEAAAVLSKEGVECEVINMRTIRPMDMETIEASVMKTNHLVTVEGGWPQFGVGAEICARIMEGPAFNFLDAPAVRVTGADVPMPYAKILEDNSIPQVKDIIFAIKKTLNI
UniProt Q96RG2: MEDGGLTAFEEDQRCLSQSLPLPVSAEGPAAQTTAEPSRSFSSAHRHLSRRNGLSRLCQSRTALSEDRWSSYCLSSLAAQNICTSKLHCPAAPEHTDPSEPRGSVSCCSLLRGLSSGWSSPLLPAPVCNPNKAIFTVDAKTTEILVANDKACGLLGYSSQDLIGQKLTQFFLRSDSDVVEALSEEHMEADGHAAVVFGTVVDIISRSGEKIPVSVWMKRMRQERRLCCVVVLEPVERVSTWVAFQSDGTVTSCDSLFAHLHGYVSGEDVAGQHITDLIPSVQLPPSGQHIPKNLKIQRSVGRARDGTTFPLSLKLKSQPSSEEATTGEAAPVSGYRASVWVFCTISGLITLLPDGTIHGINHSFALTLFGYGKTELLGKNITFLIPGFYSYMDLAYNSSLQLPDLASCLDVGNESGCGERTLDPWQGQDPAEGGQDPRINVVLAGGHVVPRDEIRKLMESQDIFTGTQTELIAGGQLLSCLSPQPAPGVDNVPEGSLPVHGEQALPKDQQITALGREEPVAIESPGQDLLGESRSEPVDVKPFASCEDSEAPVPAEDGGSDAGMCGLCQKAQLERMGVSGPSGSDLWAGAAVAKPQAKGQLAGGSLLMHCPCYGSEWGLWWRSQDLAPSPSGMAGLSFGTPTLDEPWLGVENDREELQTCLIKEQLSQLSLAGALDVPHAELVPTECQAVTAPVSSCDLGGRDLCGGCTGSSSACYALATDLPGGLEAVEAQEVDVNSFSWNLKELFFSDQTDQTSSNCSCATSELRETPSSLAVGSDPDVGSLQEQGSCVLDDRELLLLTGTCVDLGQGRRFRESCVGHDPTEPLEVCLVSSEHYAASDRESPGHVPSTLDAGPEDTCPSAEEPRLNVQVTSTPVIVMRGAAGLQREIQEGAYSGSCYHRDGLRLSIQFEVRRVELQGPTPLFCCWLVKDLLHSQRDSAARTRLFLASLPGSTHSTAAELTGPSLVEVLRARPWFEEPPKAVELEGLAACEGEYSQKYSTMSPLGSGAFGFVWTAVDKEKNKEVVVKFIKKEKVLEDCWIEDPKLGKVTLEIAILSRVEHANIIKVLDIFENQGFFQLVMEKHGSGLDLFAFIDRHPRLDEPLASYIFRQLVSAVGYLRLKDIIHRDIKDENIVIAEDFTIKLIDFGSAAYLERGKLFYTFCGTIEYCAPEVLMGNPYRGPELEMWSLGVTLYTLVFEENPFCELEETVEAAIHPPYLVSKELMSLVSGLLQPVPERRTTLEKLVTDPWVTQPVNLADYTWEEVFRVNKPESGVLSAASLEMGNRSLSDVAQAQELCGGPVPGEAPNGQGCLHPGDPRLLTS
UniProt Q8NBP7, whole entry, looked up: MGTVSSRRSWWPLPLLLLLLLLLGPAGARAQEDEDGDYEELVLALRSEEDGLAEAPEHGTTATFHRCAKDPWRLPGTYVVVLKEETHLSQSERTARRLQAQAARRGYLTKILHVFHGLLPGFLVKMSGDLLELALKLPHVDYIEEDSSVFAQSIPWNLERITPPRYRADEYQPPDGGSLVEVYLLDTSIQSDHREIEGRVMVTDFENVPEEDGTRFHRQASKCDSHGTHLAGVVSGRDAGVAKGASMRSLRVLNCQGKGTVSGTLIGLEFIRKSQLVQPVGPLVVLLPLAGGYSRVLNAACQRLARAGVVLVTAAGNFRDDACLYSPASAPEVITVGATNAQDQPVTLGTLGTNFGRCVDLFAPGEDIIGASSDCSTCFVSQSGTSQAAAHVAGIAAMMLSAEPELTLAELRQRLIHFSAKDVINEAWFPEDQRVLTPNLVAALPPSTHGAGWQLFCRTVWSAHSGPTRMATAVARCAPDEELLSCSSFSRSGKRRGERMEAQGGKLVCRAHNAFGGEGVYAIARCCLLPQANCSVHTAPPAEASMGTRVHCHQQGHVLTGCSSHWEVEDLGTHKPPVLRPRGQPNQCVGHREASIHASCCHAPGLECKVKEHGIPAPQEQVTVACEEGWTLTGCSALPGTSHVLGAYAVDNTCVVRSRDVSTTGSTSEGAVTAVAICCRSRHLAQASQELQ
UniProt Q9H0N5: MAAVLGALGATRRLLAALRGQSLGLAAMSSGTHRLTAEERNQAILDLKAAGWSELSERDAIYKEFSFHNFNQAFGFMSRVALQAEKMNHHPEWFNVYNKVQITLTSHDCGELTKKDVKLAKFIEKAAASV
UniProt P12004, whole entry, looked up: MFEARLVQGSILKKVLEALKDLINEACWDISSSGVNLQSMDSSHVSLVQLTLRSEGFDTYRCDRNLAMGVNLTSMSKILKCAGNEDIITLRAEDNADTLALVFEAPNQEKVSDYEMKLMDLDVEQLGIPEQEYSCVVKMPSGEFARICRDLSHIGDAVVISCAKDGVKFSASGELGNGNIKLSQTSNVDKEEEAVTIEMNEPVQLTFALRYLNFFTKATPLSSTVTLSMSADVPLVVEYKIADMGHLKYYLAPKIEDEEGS

The other results are listed elsewhere or left out.

Compound in the test: C1COCCN1CCN2C3=CC=CC=C3N=C2NC(=O)C4=CC(=CC=C4)[N+](=O)[O-] [IRAK-1-4 Inhibitor I]
Briefly: log2 fold change, soluble protein after heating vs DMSO (PISA); higher = thermal stabilisation; K562 cells, 10 uM, 30 min; active = over 0.2 and 3.5 SD of the protein, either way, in both replicates (recomputed). A digest of the protocol:
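K562 cells at 2×10^6 cells/mL were treated for 30 min with 10 μM compound, and aliquots were heated for 3 min over 48°C-58°C before pooling. Extraction used PBS with 0.5% NP-40 at 4°C, and soluble protein was the supernatant after 21,000xg for 90 min, measured by TMTpro 16plex LC-MS/MS with channel sums equalised. Thermal stability values, relative to control samples and from duplicates, are log2 fold changes.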
For the target PCYOX1 (UniProt Q9UHG3), the log2 fold change was inactive: -0.017. For the target PDCL (UniProt Q13371), the log2 fold change is inactive: 0. As for PDCD5 (UniProt O14737), the log2 fold change is inactive: 0.01. For PAGR1 (UniProt Q9BTK6) the value was inactive: -0.057. The figure for PDCD11 (UniProt Q14690) is inactive: 0.102; for PDSS1 (UniProt Q5T2R2) it is inactive: 0.017; for PAK3 isoform 3 (UniProt O75914) it is inactive: -0.01.

As to PAIP2 (UniProt Q9BPZ3), the log2 fold change was inactive: -0.072. Regarding PDF (UniProt Q9HBH1), the log2 fold change is inactive: -0.012.

For PANX1 (UniProt Q96RD7), the log2 fold change is inactive: -0.051. In the case of PDHX (UniProt O00330), the log2 fold change was inactive: -0.03. PDHB (UniProt P11177): the log2 fold change is inactive: -0.073. As to PAK2 (UniProt Q13177), the log2 fold change is inactive: 0.027. Take PEX14 (UniProt O75381): the log2 fold change is inactive: -0.043.

For PASK (UniProt Q96RG2), the log2 fold change is inactive: -0.001. For PCSK9 (UniProt Q8NBP7) the value was inactive: 0.049; for PAPSS1 (UniProt O43252), inactive: 0.081; for PDIA4 (UniProt P13667), inactive: -0.024. Regarding PABPC4 isoform 3 (UniProt Q13310), the log2 fold change was inactive: -0.089. For PCBD2 (UniProt Q9H0N5) the value was inactive: 0.031; for PDCL3 (UniProt Q9H2J4), inactive: 0.008; for PDLIM4 (UniProt P50479), inactive: 0.015. As to PCNA (UniProt P12004), the log2 fold change is inactive: 0.028. For PDXDC1 (UniProt Q6P996) the value was inactive: -0.165.
